Test results published in the supplement of paper PMC12823440, “Inhibitors supercharge kinase turnover through native proteolytic circuits” (Nature, 2025).
Counter-ions that a name gives are not always drawn. The list shows a part of the results. Hit calls seldom repeat between salt and free forms of one compound.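 Kinases, fused to nanoluciferase, were expressed in K562 cells; luminescence was measured every 4 h from 2 to 18 h as percent of control (DMSO = 100%, positive control = 0%). A time point is decreased if signal falls significantly (2 sigma). Hits were called by the authors by a rule that is not shown; the count of time points alone does not decide it.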

Each molecule was assayed against SYK (UniProt P43405) (assay: kinase-Nluc reporter destabilization hit call (1 = scored as downregulated) (binary); higher = compound decreases kinase abundance). Conditions: K562; 2-18 h.

kinase-Nluc reporter destabilization hit call, inactive:
O=C(Nc1ccccc1C(=O)NC1CCCCNC1=O)c1cc2ccccc2s1 (configuration not stated) (10 µM) 0, CCOc1cc(=O)[nH]cc1-c1ccc(CC(=O)Nc2cc(C(C)(C)C(F)(F)F)on2)c(F)c1 (10 µM) 0, Cn1cnc2c(F)c(Nc3ccc(Br)cc3F)c(C(=O)NOCCO)cc21 [Binimetinib] (10 µM) 0, Cc1ccc(NC(=O)N2CCN(c3nc(N)nc4sc(-c5cccnc5)nc34)CC2)cc1 [PI4KIII beta inhibitor 3] (10 µM) 0, CC(C1CC1)n1cnc2c(NCc3cccc(C(F)(F)F)c3)nc(NCCN(C)C)nc21 (configuration not stated) (10 µM) 0, CCn1c(N)c(C(=O)NC)c(=O)c2ccc(C#CC(C)(O)COC)nc21 (configuration not stated) (10 µM) 0, N#Cc1cc(N2CCC(C(=O)N3N=CC[C@H]3c3cc(F)cc(F)c3)CC2)ncn1 (10 µM) 0, CN1CCN(Cc2ccc(-c3cn(C4CCC(O)CC4)c4nc(NCCC5CC5)ncc34)cc2)CC1 (configuration not stated) (2.5 µM) 0, COc1ccc(Cl)cc1N(CC(=O)Nc1ccc2c(c1)OCO2)S(=O)(=O)c1ccccc1 (2.5 µM) 0, CS[C@@]1(C(=O)Nc2ccc3[nH]nc(-c4ccc(OC(C)C)nc4)c3c2)CCN(CC(=O)N2CC=C(c3ccc(-c4ncn(C)n4)cc3)CC2)C1 (2.5 µM) 0, CCc1cc(Nc2nccc(-c3c(-c4ccc(OC)c(C(=O)Nc5c(F)cccc5F)c4)nc4ccccn34)n2)c(OC)cc1N1CCC(N2CCN(S(C)(=O)=O)CC2)CC1 (2.5 µM) 0, O=C(O)/C=C(\CCc1ccc(Cl)cc1)c1ccccc1 (10 µM) 0, Cc1cccc(CC(=O)N2CCc3c2ccc(-c2cn(C)c4ncnc(N)c24)c3F)n1 (10 µM) 0, CN(C)CCn1cc2cc(NC(=O)c3cccc(C(F)(F)F)n3)c(C(C)(C)O)cc2n1 (10 µM) 0, Cc1cc(N2CCOCC2)ccc1Nc1nc(NC2CCCCC2)c2[nH]cnc2n1 (10 µM) 0, COc1c(Nc2ncc(Cl)c(N[C@H]3[C@@H](C(N)=O)[C@@H]4C=C[C@H]3C4)n2)ccc2c1CC[C@@H](N1CCOCC1)CC2 (10 µM) 0, COc1cc2ncnc(Nc3cc(Br)c(O)c(Br)c3)c2cc1OC (2.5 µM) 0, Cc1cncc2cccc(S(=O)(=O)N3CCCNC[C@@H]3C)c12 [H-1152 (dihydrochloride)] (10 µM) 0, Nc1ccc(O)c(C(=O)O)c1 [5-Aminosalicylic Acid] (10 µM) 0, CC(C)(C)S(=O)(=O)c1cc2c(Nc3ccc4scnc4c3)ncnc2cc1OCCOP(=O)(O)O (2 µM) 0, CC(C)(CCCCCC(O)CCCCCC(C)(C)C(=O)O)C(=O)O [Bempedoic acid] (10 µM) 0, Cc1n[nH]c2ncc(C(=O)N3CCC[C@H]3c3ccc(Cl)cc3)cc12 (10 µM) 0, CCOC(=O)c1c(Nc2ccccc2Cl)oc(/C=C2\C=Nc3ncccc32)c1O (10 µM) 0, O=C(CCl)c1c[nH]c2ccccc12 (2.5 µM) 0, O=C(Nc1ccc(F)cc1F)C(NC(=S)Nc1cc(C(F)(F)F)cc(C(F)(F)F)c1)c1ccccc1 (racemic) (2.5 µM) 0, COc1cc2nc(NC3CC3)nc(NC3CCN(C(C)C)CC3)c2cc1OC (10 µM) 0, C=CC(=O)Nc1cc(Nc2nccc(-c3cn(C)c4ccccc34)n2)c(OCC(F)(F)F)nc1N(C)CCNC [AST5902  (trimesylate)] (2.5 µM) 0, CN(C)c1cc[n+](Cc2ccc(OCCOc3ccc(C[n+]4ccc(N(C)C)cc4)cc3)cc2)cc1 (10 µM) 0, COc1cc(N2CCC(O)CC2)ccc1Nc1nc(Nc2ccccc2S(=O)(=O)C(C)C)c2[nH]cnc2n1 (10 µM) 0, Cc1cccc(-c2nn3c(c2-c2ccnc4ccc(C(N)=O)cc24)CCC3)n1 [Galunisertib] (10 µM) 0, C[C@@H]1COC(Nc2ccc3ncnc(Nc4ccc(OCc5nccs5)c(Cl)c4)c3c2)=N1 [Varlitinib] (10 µM) 0, CS(=O)(=O)c1ccc([C@@H](CC2CCCC2)C(=O)Nc2nccs2)cc1 (10 µM) 0
